Assay results published in PMC3643660.
These are yes or no findings as the source states them, for the method shown. In cells and extracts the contact can be indirect. Some entries that bind do so weakly or less than the wild type.

Amino acid sequences for entries named in this document (tags omitted).
UniProt P08183: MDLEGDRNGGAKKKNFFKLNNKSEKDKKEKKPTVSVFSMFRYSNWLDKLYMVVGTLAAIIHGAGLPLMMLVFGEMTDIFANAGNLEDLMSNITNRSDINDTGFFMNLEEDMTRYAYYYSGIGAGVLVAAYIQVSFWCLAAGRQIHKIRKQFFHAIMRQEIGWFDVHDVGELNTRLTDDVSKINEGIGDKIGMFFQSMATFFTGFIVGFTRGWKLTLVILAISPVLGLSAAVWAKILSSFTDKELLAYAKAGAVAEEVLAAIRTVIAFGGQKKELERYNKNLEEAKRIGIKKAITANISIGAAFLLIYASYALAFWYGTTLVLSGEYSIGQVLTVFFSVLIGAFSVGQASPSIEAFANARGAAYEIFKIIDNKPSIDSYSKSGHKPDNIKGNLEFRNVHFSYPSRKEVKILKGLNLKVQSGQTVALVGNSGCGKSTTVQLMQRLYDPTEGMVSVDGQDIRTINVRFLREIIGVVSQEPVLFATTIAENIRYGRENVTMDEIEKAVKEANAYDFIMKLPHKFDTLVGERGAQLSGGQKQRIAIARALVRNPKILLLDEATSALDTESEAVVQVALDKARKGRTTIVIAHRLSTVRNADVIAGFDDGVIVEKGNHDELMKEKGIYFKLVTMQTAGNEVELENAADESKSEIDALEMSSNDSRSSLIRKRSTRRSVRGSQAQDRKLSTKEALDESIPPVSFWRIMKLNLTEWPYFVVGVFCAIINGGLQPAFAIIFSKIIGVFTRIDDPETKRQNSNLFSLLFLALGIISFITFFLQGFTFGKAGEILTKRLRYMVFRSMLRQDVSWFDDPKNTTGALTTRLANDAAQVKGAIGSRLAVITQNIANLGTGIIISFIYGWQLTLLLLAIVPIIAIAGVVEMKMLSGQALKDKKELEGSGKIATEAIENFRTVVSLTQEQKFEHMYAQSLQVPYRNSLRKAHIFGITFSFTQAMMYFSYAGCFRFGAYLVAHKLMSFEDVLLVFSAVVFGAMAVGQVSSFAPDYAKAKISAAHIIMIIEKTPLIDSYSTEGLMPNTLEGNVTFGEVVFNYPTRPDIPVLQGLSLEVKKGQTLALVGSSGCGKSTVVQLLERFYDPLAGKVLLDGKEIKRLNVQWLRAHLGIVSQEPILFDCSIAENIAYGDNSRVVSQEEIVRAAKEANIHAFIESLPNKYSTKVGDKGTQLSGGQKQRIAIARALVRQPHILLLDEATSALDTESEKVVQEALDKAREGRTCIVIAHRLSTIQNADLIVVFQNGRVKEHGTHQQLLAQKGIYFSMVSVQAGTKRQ
UniProt P07355: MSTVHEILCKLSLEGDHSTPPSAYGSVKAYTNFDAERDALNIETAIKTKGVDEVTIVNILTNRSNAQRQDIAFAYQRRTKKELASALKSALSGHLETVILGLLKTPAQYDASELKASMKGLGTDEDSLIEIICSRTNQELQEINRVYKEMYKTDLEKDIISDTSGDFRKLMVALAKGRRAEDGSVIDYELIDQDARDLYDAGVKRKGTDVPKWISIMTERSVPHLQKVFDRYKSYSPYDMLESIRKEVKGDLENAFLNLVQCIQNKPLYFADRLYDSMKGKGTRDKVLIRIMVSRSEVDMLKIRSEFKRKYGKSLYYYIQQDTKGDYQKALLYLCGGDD

Legend:
[1] = target: P-glycoprotein (human (endogenous in MCF-7/ADR)) (UniProt P08183); experiment: co-IP; MCF-7/ADR cells lysed in ice-cold RIPA buffer (150 mM NaCl, 50 mM Tris-HCl pH 7.4, 5 mM EDTA, 1% Triton X-100, 0.1% SDS); 1 mg lysate immunoprecipitated with 2 ug anti-P-gp (JSB-1) or anti-Anxa2 (C10) overnight at 4°C with protein G-Sepharose beads; immunoblotting; normal mouse IgG as …
[2] = target: Anxa2 (human (endogenous in MCF-7/ADR)) (UniProt P07355); experiment: as above

Row | binding [1] | binding [2] | Substance
1 | binds |  | Anxa2 (from UniProt P07355 1-339)
2 |  | binds | P-glycoprotein (from UniProt P08183 1-1280)
